Results reported in article PMC6471494, “Functional Mechanisms Underlying the Antimicrobial Activity of the Oryza sativa Trx-like Protein” (International Journal of Molecular Sciences, 2019).
These are yes or no findings as the source states them, for the method shown. Some entries that bind do so weakly or less than the wild type.

Key:
[1] = target: Oryza sativa Tetratricopeptide Domain-containing thioredoxin (OsTDX) protein (Oryza sativa) (UniProt Q6ES52); assay: negative-stain transmission electron microscopy; SEC fractions a, b and c of OsTDX on glow-discharged carbon-coated copper grids, 1% uranyl acetate, FEI Tecnai 20 at 200 kV; both purified
[2] = target: Oryza sativa Tetratricopeptide Domain-containing thioredoxin (OsTDX) protein (Oryza sativa) (UniProt Q6ES52); assay: native gel or EMSA; native-PAGE of purified recombinant OsTDX (10% by the legend, 12% by the methods); both purified
[3] = target: Oryza sativa Tetratricopeptide Domain-containing thioredoxin (OsTDX) protein (Oryza sativa) (UniProt Q6ES52); assay: SEC; FPLC, SEC 650 column, 0.5 mL/min, 25 °C, PBS pH 7.2; calibrated with thyroglobulin (670 kDa), γ-globulin (158 kDa), ovalbumin (44 kDa), myoglobin (17 kDa); both purified

Measured: binding

B1: Oryza sativa Tetratricopeptide Domain-containing thioredoxin (OsTDX) protein (natural protein, UniProt Q6ES52 1-317, looked up)
chain: MATAGASSFEDEIMESDIELEGEAVEPDNDPPQKMGDPSVEVSDEKRDQAQLCKNKGVDAFSEGKLDEAIEHLTEAIVLNPTSAIAYATRAVIFVKSKKPNAAIRDADAALKINPDSAKGYKSRGMAKAMLGKWEEAAQDLRMAAKLDYDEEIGAELKKVEPNVLKIEEHRKKYERLRKERDIKKAEMEKQRKHAEEVSAASAALKDGDVIAIHSSSELDTKLKAASSLSRLVVLYFTAAWCGPCRFIGPVCKSLAEKHRNVVFLKVDIDELNSVAYRWNVSSVPSFFFVRNGKEIDKVVGADKNGLERKVAQHGSS
notes: OsTDX, Oryza sativa TPR repeat-containing thioredoxin; full-length cDNA amplified from a rice leaf cDNA library and cloned into pGEX-2T; predicted MW ~35 kDa; also called rice Trx-like protein; recombinant OsTDX; source: E. coli BL21(DE3), purified (glutathione-agarose, GST cleaved by thrombin, FPLC SEC 650 column)
binds: all assays above
